The target of the data set is FOXO3-DBD (Homo sapiens, UniProt O43524). Briefly: EMSA. As to conditions: FAM-EMSA: 20 mM Tris pH 7.5, 100 mM NaCl, 1 mM EDTA, 5% glycerol, 30 min RT, 5% PAGE 0.5x TBE, recombinant protein, residues 156-269, protein details: N-terminal GST, His (GST-His-purified). On the technique in general: A gel shift assay detects complexes by their altered migration in electrophoresis.

By UniProt entry, the sequences of proteins in these tests, tags left out. Residues count along the entry.
UniProt O43524, 156-269: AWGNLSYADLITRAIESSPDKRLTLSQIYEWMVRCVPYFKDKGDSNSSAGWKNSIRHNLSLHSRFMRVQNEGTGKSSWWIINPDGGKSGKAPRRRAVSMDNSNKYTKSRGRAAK

The results in this text go back to article PMC6989399, “A drug library screen identifies Carbenoxolone as novel FOXO inhibitor that overcomes FOXO3-mediated chemoprotection in high-stage neuroblastoma” (Oncogene, 2019).

No signal at the amounts used counts as a negative. At least one verdict was read from the data and is not stated in words by the source.

With “AGCAAAGTTGTTTTTGATAATG (double strand) [FoxP3-FAM]”, the binding result (60 uM carbenoxolone (CBX)) is recorded as “no binding”.
As to “AGCAAAGTTGGGGTTGATAATG (double strand) [FoxP3-mut-FAM]”, the binding result (1 uM protein, 100 nM DNA) is “no binding”.
